In PMC3113324, “AKAP5 and AKAP12 Form Homo-oligomers” (Journal of Molecular Signaling, 2011):
These are yes or no findings as the source states them, for the method shown. For part of these data: Sequences can lack the tags named with a protein.

What was measured:
Assay in all cases: SDS-PAGE in 8 M urea; whole-cell lysates of HEK293 cells treated with and resolved on SDS-PAGE in the presence of 8 M urea; immunoblot with anti-HA or anti-AKAP12
[1] = biological target: full-length endogenous AKAP12 (human (endogenous in HEK293)) (UniProt Q02952)
[2] = biological target: HA-AKAP12 (1-938) (human) (UniProt Q02952)
[3] = biological target: HA-AKAP12 (840-1782) (human) (UniProt Q02952)

B1: full-length endogenous AKAP12 (natural protein, human (endogenous in HEK293), UniProt Q02952 1-1782, looked up)
chain: MGAGSSTEQRSPEQPPEGSSTPAEPEPSGGGPSAEAAPDTTADPAIAASDPATKLLQKNGQLSTINGVAEQDELSLQEGDLNGQKGALNGQGALNSQEEEEVIVTEVGQRDSEDVSKRDSDKEMATKSAVVHDITDDGQEETPEIIEQIPSSESNLEELTQPTESQANDIGFKKVFKFVGFKFTVKKDKTEKPDTVQLLTVKKDEGEGAAGAGDHKDPSLGAGEAASKESEPKQSTEKPEETLKREQSHAEISPPAESGQAVEECKEEGEEKQEKEPSKSAESPTSPVTSETGSTFKKFFTQGWAGWRKKTSFRKPKEDEVEASEKKKEQEPEKVDTEEDGKAEVASEKLTASEQAHPQEPAESAHEPRLSAEYEKVELPSEEQVSGSQGPSEEKPAPLATEVFDEKIEVHQEEVVAEVHVSTVEERTEEQKTEVEETAGSVPAEELVEMDAEPQEAEPAKELVKLKETCVSGEDPTQGADLSPDEKVLSKPPEGVVSEVEMLSSQERMKVQGSPLKKLFTSTGLKKLSGKKQKGKRGGGDEESGEHTQVPADSPDSQEEQKGESSASSPEEPEEITCLEKGLAEVQQDGEAEEGATSDGEKKREGVTPWASFKKMVTPKKRVRRPSESDKEDELDKVKSATLSSTESTASEMQEEMKGSVEEPKPEEPKRKVDTSVSWEALICVGSSKKRARRGSSSDEEGGPKAMGGDHQKADEAGKDKETGTDGILAGSQEHDPGQGSSSPEQAGSPTEGEGVSTWESFKRLVTPRKKSKSKLEEKSEDSIAGSGVEHSTPDTEPGKEESWVSIKKFIPGRRKKRPDGKQEQAPVEDAGPTGANEDDSDVPAVVPLSEYDAVEREKMEAQQAQKSAEQPEQKAATEVSKELSESQVHMMAAAVADGTRAATIIEERSPSWISASVTEPLEQVEAEAALLTEEVLEREVIAEEEPPTVTEPLPENREARGDTVVSEAELTPEAVTAAETAGPLGAEEGTEASAAEETTEMVSAVSQLTDSPDTTEEATPVQEVEGGVPDIEEQERRTQEVLQAVAEKVKEESQLPGTGGPEDVLQPVQRAEAERPEEQAEASGLKKETDVVLKVDAQEAKTEPFTQGKVVGQTTPESFEKAPQVTESIESSELVTTCQAETLAGVKSQEMVMEQAIPPDSVETPTDSETDGSTPVADFDAPGTTQKDEIVEIHEENEVASGTQSGGTEAEAVPAQKERPPAPSSFVFQEETKEQSKMEDTLEHTDKEVSVETVSILSKTEGTQEADQYADEKTKDVPFFEGLEGSIDTGITVSREKVTEVALKGEGTEEAECKKDDALELQSHAKSPPSPVEREMVVQVEREKTEAEPTHVNEEKLEHETAVTVSEEVSKQLLQTVNVPIIDGAKEVSSLEGSPPPCLGQEEAVCTKIQVQSSEASFTLTAAAEEEKVLGETANILETGETLEPAGAHLVLEEKSSEKNEDFAAHPGEDAVPTGPDCQAKSTPVIVSATTKKGLSSDLEGEKTTSLKWKSDEVDEQVACQEVKVSVAIEDLEPENGILELETKSSKLVQNIIQTAVDQFVRTEETATEMLTSELQTQAHVIKADSQDAGQETEKEGEEPQASAQDETPITSAKEESESTAVGQAHSDISKDMSEASEKTMTVEVEGSTVNDQQLEEVVLPSEEEGGGAGTKSVPEDDGHALLAERIEKSLVEPKEDEKGDDVDDPENQNSALADTDASGGLTKESPDTNGPKQKEKEDAQEVELQEGKVHSESDKAITPQAQEELQKQERESAKSELTES
notes: AKAP12, endogenous in HEK293 cells, detected with anti-AKAP12 antibody; also called native AKAP12; endogenously expressed AKAP12; source: endogenous, HEK293 whole-cell lysate
binding [1]: no binding (condition: with 8 M urea)

B2: HA-AKAP12 (1-938) (domain or fragment, human, UniProt Q02952 1-938, looked up)
chain: MGAGSSTEQRSPEQPPEGSSTPAEPEPSGGGPSAEAAPDTTADPAIAASDPATKLLQKNGQLSTINGVAEQDELSLQEGDLNGQKGALNGQGALNSQEEEEVIVTEVGQRDSEDVSKRDSDKEMATKSAVVHDITDDGQEETPEIIEQIPSSESNLEELTQPTESQANDIGFKKVFKFVGFKFTVKKDKTEKPDTVQLLTVKKDEGEGAAGAGDHKDPSLGAGEAASKESEPKQSTEKPEETLKREQSHAEISPPAESGQAVEECKEEGEEKQEKEPSKSAESPTSPVTSETGSTFKKFFTQGWAGWRKKTSFRKPKEDEVEASEKKKEQEPEKVDTEEDGKAEVASEKLTASEQAHPQEPAESAHEPRLSAEYEKVELPSEEQVSGSQGPSEEKPAPLATEVFDEKIEVHQEEVVAEVHVSTVEERTEEQKTEVEETAGSVPAEELVEMDAEPQEAEPAKELVKLKETCVSGEDPTQGADLSPDEKVLSKPPEGVVSEVEMLSSQERMKVQGSPLKKLFTSTGLKKLSGKKQKGKRGGGDEESGEHTQVPADSPDSQEEQKGESSASSPEEPEEITCLEKGLAEVQQDGEAEEGATSDGEKKREGVTPWASFKKMVTPKKRVRRPSESDKEDELDKVKSATLSSTESTASEMQEEMKGSVEEPKPEEPKRKVDTSVSWEALICVGSSKKRARRGSSSDEEGGPKAMGGDHQKADEAGKDKETGTDGILAGSQEHDPGQGSSSPEQAGSPTEGEGVSTWESFKRLVTPRKKSKSKLEEKSEDSIAGSGVEHSTPDTEPGKEESWVSIKKFIPGRRKKRPDGKQEQAPVEDAGPTGANEDDSDVPAVVPLSEYDAVEREKMEAQQAQKSAEQPEQKAATEVSKELSESQVHMMAAAVADGTRAATIIEERSPSWISASVTEPLEQVEAEAALLTEEVLE
notes: AKAP12, human, N-terminal fragment, residues 1-938; also called AKAP12 N-terminal (1-938) fragment; source: HEK293, transfected (pcDNA3.1), in whole-cell lysate
binding [2]: no binding (condition: with 8 M urea)

B3: HA-AKAP12 (840-1782) (domain or fragment, human, UniProt Q02952 840-1782, looked up)
chain: DSDVPAVVPLSEYDAVEREKMEAQQAQKSAEQPEQKAATEVSKELSESQVHMMAAAVADGTRAATIIEERSPSWISASVTEPLEQVEAEAALLTEEVLEREVIAEEEPPTVTEPLPENREARGDTVVSEAELTPEAVTAAETAGPLGAEEGTEASAAEETTEMVSAVSQLTDSPDTTEEATPVQEVEGGVPDIEEQERRTQEVLQAVAEKVKEESQLPGTGGPEDVLQPVQRAEAERPEEQAEASGLKKETDVVLKVDAQEAKTEPFTQGKVVGQTTPESFEKAPQVTESIESSELVTTCQAETLAGVKSQEMVMEQAIPPDSVETPTDSETDGSTPVADFDAPGTTQKDEIVEIHEENEVASGTQSGGTEAEAVPAQKERPPAPSSFVFQEETKEQSKMEDTLEHTDKEVSVETVSILSKTEGTQEADQYADEKTKDVPFFEGLEGSIDTGITVSREKVTEVALKGEGTEEAECKKDDALELQSHAKSPPSPVEREMVVQVEREKTEAEPTHVNEEKLEHETAVTVSEEVSKQLLQTVNVPIIDGAKEVSSLEGSPPPCLGQEEAVCTKIQVQSSEASFTLTAAAEEEKVLGETANILETGETLEPAGAHLVLEEKSSEKNEDFAAHPGEDAVPTGPDCQAKSTPVIVSATTKKGLSSDLEGEKTTSLKWKSDEVDEQVACQEVKVSVAIEDLEPENGILELETKSSKLVQNIIQTAVDQFVRTEETATEMLTSELQTQAHVIKADSQDAGQETEKEGEEPQASAQDETPITSAKEESESTAVGQAHSDISKDMSEASEKTMTVEVEGSTVNDQQLEEVVLPSEEEGGGAGTKSVPEDDGHALLAERIEKSLVEPKEDEKGDDVDDPENQNSALADTDASGGLTKESPDTNGPKQKEKEDAQEVELQEGKVHSESDKAITPQAQEELQKQERESAKSELTES
notes: AKAP12, human, C-terminal fragment, residues 840-1782; also called AKAP12 C-terminal (840-1782) fragment; source: HEK293, transfected (pcDNA3.1), in whole-cell lysate
binding [3]: no binding (condition: with 8 M urea)
